One substance from paper PMC10242988 can be followed below.

By UniProt entry, the sequences of proteins in these tests, tags left out.
UniProt O43581: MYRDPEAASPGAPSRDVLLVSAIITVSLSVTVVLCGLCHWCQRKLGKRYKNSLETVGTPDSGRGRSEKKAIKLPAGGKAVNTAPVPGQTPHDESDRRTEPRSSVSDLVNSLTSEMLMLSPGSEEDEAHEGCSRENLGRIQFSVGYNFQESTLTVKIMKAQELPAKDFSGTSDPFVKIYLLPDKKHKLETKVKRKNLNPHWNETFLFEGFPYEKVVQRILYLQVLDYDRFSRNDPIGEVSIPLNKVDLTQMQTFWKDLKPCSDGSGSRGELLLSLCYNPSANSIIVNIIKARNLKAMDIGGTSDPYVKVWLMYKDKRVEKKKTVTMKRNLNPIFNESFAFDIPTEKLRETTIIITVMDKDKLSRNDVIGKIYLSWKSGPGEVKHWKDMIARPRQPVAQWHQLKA
UniProt Q86TM6: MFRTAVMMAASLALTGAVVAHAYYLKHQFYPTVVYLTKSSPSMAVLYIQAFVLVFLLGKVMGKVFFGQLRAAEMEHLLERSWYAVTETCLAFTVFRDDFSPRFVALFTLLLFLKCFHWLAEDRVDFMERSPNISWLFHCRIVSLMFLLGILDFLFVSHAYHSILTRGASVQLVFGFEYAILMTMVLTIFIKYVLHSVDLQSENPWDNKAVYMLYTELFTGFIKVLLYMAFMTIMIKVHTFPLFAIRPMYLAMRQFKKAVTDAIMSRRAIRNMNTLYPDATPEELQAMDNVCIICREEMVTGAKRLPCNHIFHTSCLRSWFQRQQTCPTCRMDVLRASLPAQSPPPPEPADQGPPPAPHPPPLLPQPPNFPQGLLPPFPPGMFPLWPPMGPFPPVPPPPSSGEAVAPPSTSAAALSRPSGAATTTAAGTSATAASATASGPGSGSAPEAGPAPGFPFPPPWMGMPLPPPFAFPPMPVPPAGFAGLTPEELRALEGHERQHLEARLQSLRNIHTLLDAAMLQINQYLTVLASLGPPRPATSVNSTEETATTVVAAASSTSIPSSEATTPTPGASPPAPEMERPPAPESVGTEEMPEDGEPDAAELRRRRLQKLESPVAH

The assay deals with Synaptotagmin 7 (SYT7) (human) (UniProt O43581). The experiment in a line: co-IP; 1.0-1.2 mg total protein in lysis buffer incubated with anti-KNTC1 or anti-SYT7 antibodies at 4 °C overnight, magnetic beads 2 h at 4 °C, SDS-PAGE and blot.

No constants are given. Whether binding was seen depends on the method and setting. In cells and extracts the contact can be indirect. Some entries that bind do so weakly or less than the wild type.

Turning to SYVN1 (from UniProt Q86TM6 1-617), the binding entry is “binds”.
